# Results published in the supplement of paper PMC12067093, “Discovery and optimisation of a covalent ligand for TRIM25 and its application to targeted protein ubiquitination” (Chemical Science, 2025).
# By UniProt entry, the sequences of proteins in these tests, tags left out. Where a name states a change or a piece, a line headed by the entry shows the natural chain unless it says otherwise.
# UniProt Q9P260: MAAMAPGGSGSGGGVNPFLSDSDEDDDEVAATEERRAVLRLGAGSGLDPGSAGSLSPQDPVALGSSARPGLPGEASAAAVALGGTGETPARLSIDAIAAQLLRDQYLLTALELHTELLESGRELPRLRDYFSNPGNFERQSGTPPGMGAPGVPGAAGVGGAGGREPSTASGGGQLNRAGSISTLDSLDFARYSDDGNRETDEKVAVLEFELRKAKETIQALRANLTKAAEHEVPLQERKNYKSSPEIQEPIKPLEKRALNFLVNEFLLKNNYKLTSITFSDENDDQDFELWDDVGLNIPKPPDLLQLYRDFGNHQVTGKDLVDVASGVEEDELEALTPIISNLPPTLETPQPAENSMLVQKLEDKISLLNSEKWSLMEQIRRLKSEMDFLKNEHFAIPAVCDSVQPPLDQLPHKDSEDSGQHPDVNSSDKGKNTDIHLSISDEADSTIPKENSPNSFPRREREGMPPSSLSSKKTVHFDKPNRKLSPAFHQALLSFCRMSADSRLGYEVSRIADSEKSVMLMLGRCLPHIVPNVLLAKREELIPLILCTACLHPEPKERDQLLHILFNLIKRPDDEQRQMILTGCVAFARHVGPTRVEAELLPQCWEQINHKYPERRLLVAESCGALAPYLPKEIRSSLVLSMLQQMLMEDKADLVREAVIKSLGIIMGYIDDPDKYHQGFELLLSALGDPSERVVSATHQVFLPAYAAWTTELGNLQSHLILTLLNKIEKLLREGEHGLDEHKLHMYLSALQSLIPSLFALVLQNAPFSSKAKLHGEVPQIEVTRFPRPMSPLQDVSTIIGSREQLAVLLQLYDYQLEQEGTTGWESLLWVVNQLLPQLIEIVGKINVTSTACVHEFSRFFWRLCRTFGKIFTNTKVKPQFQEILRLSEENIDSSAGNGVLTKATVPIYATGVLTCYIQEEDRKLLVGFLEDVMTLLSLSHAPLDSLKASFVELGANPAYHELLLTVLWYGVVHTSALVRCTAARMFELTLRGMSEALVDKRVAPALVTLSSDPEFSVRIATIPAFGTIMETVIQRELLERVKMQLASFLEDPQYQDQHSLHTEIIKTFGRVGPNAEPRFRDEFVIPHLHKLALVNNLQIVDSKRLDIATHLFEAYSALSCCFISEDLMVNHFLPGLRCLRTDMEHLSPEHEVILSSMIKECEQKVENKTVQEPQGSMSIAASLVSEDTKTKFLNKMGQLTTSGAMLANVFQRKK
# This is one part of the list.
# Target: RELCH_Q9P260_526_CLPHIVPNVLLAK (UniProt Q9P260)
# Experiment: probe-labelled cysteine peptide fold change vs DMSO (competition) (log2 fold change); higher = less target engagement (more negative = stronger competition)
# Settings: THP-1, incubation time: 4 h
# 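Further: competitive profiling in live THP-1 cells: cysteine peptides tagged with an iodoacetamide desthiobiotin (IA-DTB) probe, intensity after compound treatment relative to DMSO-treated cells.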
smiles,measurement,setting,value
Cc1cc(C(=O)N2CCCN(C(=O)CCl)CC2)ccc1-c1ccccc1 [compound 10],probe-labelled cysteine peptide fold change,10 µM,0.06
same,probe-labelled cysteine peptide fold change,50 µM,0.174
